These are yes or no findings as the source states them, for the method shown. For part of these data: A result given as binding can be weak or reduced; the word gives no strength. For part of these data: In cells and extracts the contact can be indirect. For part of these data: Where a sequence is shown, tags or fusion partners need not be part of it. Blank lines part the entries; values can stand above or below the binder they belong to.
Key:
[1] = target: Brc1(1-4) fragment in pGBKT7 (S. pombe) (UniProt Q10337); assay: two-hybrid
[2] = target: Brc1-G136A in pGBKT7 (S. pombe) (UniProt Q10337); assay: two-hybrid
[3] = target: Brc1-R268K in pGBKT7 (S. pombe) (UniProt Q10337); assay: two-hybrid
[4] = target: Brc1-T672A in pGBKT7 (S. pombe) (UniProt Q10337); assay: two-hybrid
[5] = target: Brc1-W298F, P301G in pGBKT7 (S. pombe) (UniProt Q10337); assay: two-hybrid
[6] = target: full length Brc1 in pGBKT7 (S. pombe) (UniProt Q10337); assay: two-hybrid
[7] = target: full length Brc1, bait of the yeast two-hybrid screen (S. pombe) (UniProt Q10337); assay: two-hybrid
[8] = target: TAP-Brc1 (S. pombe) (UniProt Q10337); assay: co-IP
[9] = target: Brc1 fragment 1-2 in pGBKT7 (S. pombe) (UniProt Q10337); assay: two-hybrid

Protein sequences, listed by entry. Tags and fused reporters are not part of them. Lines headed by an entry give the natural chain unless they say otherwise; changes in a name come on top.
UniProt Q10337: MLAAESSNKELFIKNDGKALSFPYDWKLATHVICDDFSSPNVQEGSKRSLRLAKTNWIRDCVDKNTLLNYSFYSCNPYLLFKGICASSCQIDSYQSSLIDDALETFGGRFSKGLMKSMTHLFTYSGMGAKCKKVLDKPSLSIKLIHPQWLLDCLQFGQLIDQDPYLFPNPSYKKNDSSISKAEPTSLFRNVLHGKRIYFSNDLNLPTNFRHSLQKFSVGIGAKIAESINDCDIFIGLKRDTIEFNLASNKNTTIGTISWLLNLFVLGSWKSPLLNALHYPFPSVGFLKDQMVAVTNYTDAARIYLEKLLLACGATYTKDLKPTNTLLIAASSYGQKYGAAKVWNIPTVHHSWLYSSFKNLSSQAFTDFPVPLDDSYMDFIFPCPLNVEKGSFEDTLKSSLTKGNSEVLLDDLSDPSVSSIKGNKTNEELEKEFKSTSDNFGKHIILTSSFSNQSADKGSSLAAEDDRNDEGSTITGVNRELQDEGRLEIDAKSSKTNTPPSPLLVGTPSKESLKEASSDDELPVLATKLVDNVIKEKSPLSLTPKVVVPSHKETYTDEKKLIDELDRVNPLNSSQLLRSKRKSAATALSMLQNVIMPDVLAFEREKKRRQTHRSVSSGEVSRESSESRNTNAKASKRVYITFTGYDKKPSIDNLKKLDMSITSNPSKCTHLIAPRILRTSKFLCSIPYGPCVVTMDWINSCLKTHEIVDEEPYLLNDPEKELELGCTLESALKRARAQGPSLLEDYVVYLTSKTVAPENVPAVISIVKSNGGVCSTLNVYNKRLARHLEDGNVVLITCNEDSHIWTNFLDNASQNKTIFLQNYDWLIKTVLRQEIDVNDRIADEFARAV

B1: Rhp18 Mid zinc finger domain in pGADT7 (domain or fragment, UniProt O74747 111-202)
chain: APETVIAQDSASGDEEWEDDLASNSSPASIAKKTSRDSKKRKREDLVHCPACSNLVPHNQINQHLDSCLNSPSSPSSSSSPYKNKDNSKSNS
- binding [1]: binds
- binding [2]: binds
- binding [3]: binds
- binding [4]: binds
- binding [5]: binds
- binding [6]: binds

B2: Rhp18 N-terminal RING domain in pGADT7 (domain or fragment, UniProt O74747 1-117)
chain: MNELDATDPSDWNQTKIPSLKGLDSSLRCLICHEYFRAPLITSCSHTFCSFCIRDYLREHPMCPACRAPEQESRLRKNTILEEILESFKVIRPTLFEFLKVENVPKPVLQAPETVIA
- binding [1]: no binding
- binding [6]: no binding

B3: Rhp18(R/M) fragment in pGADT7 (domain or fragment, UniProt O74747 1-202)
chain: MNELDATDPSDWNQTKIPSLKGLDSSLRCLICHEYFRAPLITSCSHTFCSFCIRDYLREHPMCPACRAPEQESRLRKNTILEEILESFKVIRPTLFEFLKVENVPKPVLQAPETVIAQDSASGDEEWEDDLASNSSPASIAKKTSRDSKKRKREDLVHCPACSNLVPHNQINQHLDSCLNSPSSPSSSSSPYKNKDNSKSNS
- binding [1]: binds
- binding [6]: binds

B5: 13myc-Rhp18 (protein, UniProt O74747 1-387)
chain: MNELDATDPSDWNQTKIPSLKGLDSSLRCLICHEYFRAPLITSCSHTFCSFCIRDYLREHPMCPACRAPEQESRLRKNTILEEILESFKVIRPTLFEFLKVENVPKPVLQAPETVIAQDSASGDEEWEDDLASNSSPASIAKKTSRDSKKRKREDLVHCPACSNLVPHNQINQHLDSCLNSPSSPSSSSSPYKNKDNSKSNSLLSFKTDDDSITKRRLRSFNSADELPLKDRVRLPKLTYALLSESKIRSKLSEMGLPTDGHKQLLQRRHAKWVTLYNSNLDQKQPVSKRNLIRQLIDWERVQSKSIGVEKEKLGGGDWEKAYAEDFADLINRAKQSTTNKNDSLRNTAVESSTEPSTSNGFPATSVSPPLTIDLTNSQTGSDGPQS
- binding [8]: binds

Further lines, results first:

- binding [7]: binds
B4: Rhp18, hits of the yeast two-hybrid screen (protein, UniProt O74747 1-387)
chain: B5 chain

- binding [9]: no binding
- binding [1]: binds
- binding [6]: binds
B6: full length Rhp18 in pGADT7 (protein, UniProt O74747 1-387)
chain: B5 chain
